# Results: PubChem BioAssay AID1347423 (Functional Genomics Laboratory (NCATS/FGL), 2020)
# The whole screen tested about 52,000 sequences, of which about 210 (0.4%) were called active.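 The calls were made as follows: active = gene whose silencing raises cell survival under the drug, median off-target-corrected z-score across its silencing RNAs 2 or more; inactive = the rest.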 The list shows a part of the results.
# Experiment: Resistance to Poly (ADP-Ribose) Polymerase inhibitor: Gene Identification via Genome-wide siRNA Screen
# Conditions: mouse BRCA2 R2336H ES cells, olaparib, CellTiter-Glo viability; stronger effect = higher value
# Summary of the method: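 Genome-wide siRNA screen (3 siRNAs/gene, 20 nM) in mouse ES cells carrying hypomorphic BRCA2 R2336H; olaparib 500 nM added 48 h post-transfection, CellTiter-Glo viability 72 h later. Normalized to plate-median negative control; MAD z-scores, gene median, seed-adjusted.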
row,Sequence,z-score
1,GGAUGAAGAGACUAAAAAUTT against Il23a,inactive: 1.08
2,CGAGAAAUCCUGUAAACGUTT against A130081B01,inactive: 0.296
3,GGAAAAACAGUUCUUGGAGTT against Apeh,inactive: 0.294
4,GCUAUCAAGGGCAUGAUCCTT against Gabra3,inactive: -0.915
5,CUCCACUCCUUUGGAACUUTT against 4930481M05,inactive: 0.412
6,GCGGCAAGUAUUAUUAUCATT against Cbx4,inactive: 1.01
7,GGUUUGCUUUUAUGAGAGUTT against 2610044O15Rik,inactive: 1.08
8,GGUUACCAAAAAAAGAGUUTT against Xrn1,inactive: -1.86
9,GCUACAGCUAUAUCGCUAUTT against Cnot8,inactive: -0.355
10,GGACCUCAUCAAGCUAUGUTT against Rbms3,inactive: -2.98
11,GGAGUUUCAACUCUUCUUCTT against Efcbp2,inactive: 0.0947
12,GGUUAAAAGACUGAAUGAATT against Rabep2,inactive: -0.173
13,GCUACUCUUACAAGCAAUATT against Rnf111,inactive: -0.985
14,CCGUUUCCCUCUAAAGAAATT against Mphosph6,inactive: -0.855
15,GGUUGAAGGAGACAACAUUTT against Fzd6,inactive: -0.0162
16,GGAUAUAAACGGGUUAACATT against Ltbp1,inactive: -0.255
17,GGAGUUAAAUACUGAGUUUTT against Csnk1g3,inactive: 0.574
18,GGCAGUUUCAAUGAAAGAATT against Cnn2,inactive: 0.129
19,CGAAUUUGUAACACAUGGUTT against Tmeff1,inactive: -0.802
20,GGUUAAGCAGGAAAACAAGTT against Pygb,inactive: 0.945
21,GGUUGAUUACAGCAUCGGGTT against Cops7a,inactive: -0.565
22,GGAGAAAGAAGGGAUUCUCTT against Ensa,inactive: 0.191
23,CGGCUUCUUAGGAAACUCUTT against Olfr358,inactive: -1.24
24,GCGCAAAGGUGAAACGUAGTT against E030011O05Rik,inactive: -0.0435
25,GCCUUUAAGAAGUUGAUGCTT against Olfr1015,inactive: 0.805
26,GGUCUGAAGUAUAGCAAUGTT against 6720463E02Rik,inactive: 0.0806

row,Sequence,z-score
1,GGUCCUAGGCCGAUUCGAUTT against Gpsm1,inactive: -0.387
2,CCUGCAUUUGCCGAACUUATT against 2610018G03Rik,inactive: -0.494
3,CCUUUUCCCUAAUACGUAUTT against Pcyt1a,inactive: -0.233
4,GGUGUAUUCCAGUUACAAATT against 2610002M06Rik,inactive: 0.2
5,GCGGCUUUACAAGGAUGACTT against Tceb2,inactive: -1.49
6,GGAAAACUCAUCAUACCAGTT against AI746432,inactive: 0.55
7,CUGUGGUGCCAUUCUUACUTT against Olfr386,inactive: 0.0804
8,CGAGACAAAGAAAGCAAGUTT against 5033403J15Rik,inactive: -1.65
9,GGACUGGAUGCCACUGGUATT against Tyki,inactive: 3.98
10,GCAGAACCAUACUAUUUGCTT against Apg5l,inactive: -0.0879
11,GGAAACUUUUACUUCACAGTT against Lepre1,inactive: 1.19
12,CGGGAAUCCUCUGAAUUAATT against Pycr2,inactive: 0.439
13,GGCUGAAAGGGAAGACAAATT against B3galt3,inactive: -2.67
14,CCUGAUUAUUCUGAGAAAUTT against Adsl,inactive: -0.437
15,GGCAUUUUUACAGACCAGCTT against Apoc2,inactive: 1.53
16,GGCAACCCUGAAGACAGCUTT against Cys1,inactive: 1.05
17,GGCUGUGAUUGGCAAUCUATT against 6430548M08Rik,inactive: 1.17
18,GGACCCAUUCUGUGGGUAATT against Zfpn1a2,inactive: 0.987
19,GGUCUGAGCUCUCAAAAUGTT against Neurod4,inactive: 0.679
20,GGAUUCUAGGAGAGAAUCATT against Lman1l,inactive: -0.346
21,GCAAACCACUUACACUAAUTT against Spry4,inactive: 3.14
22,GGACAUGACAUUCCUAUCCTT against C920008G01Rik,inactive: -0.21
23,GGAAACAGAUUUAAAGUGATT against AB041550,inactive: 1.49
24,GGGAUCGAAUGGUUCAGGUTT against Osbpl9,inactive: -1.76
25,GGAAAAUUCAGUUUAAUCCTT against 2410004H05Rik,inactive: 0.66
26,CCAGUCGACUACUAUGCCATT against Sstr1,inactive: 0.153

# 4 consecutive entries already listed:
row,Sequence,z-score
13,GGCUGAAAGGGAAGACAAATT against B3galt3,inactive: -2.67
14,CCUGAUUAUUCUGAGAAAUTT against Adsl,inactive: -0.437
15,GGCAUUUUUACAGACCAGCTT against Apoc2,inactive: 1.53
16,GGCAACCCUGAAGACAGCUTT against Cys1,inactive: 1.05

# (further entries)

row,Sequence,z-score
1,GGAACUUUUGGCCAGCAAGTT against Opa1,inactive: 0.518
2,GCUUCAAACCUAAUACAUCTT against Mc3r,inactive: 0.793
3,CCAAACAAUGUUGUUUAGGTT against 2900002H16Rik,inactive: 1.29
4,CCAAAGGCCAAAUAACAGUTT against Timm17a,inactive: -1.13
5,GGAGUUUAGAAGGGAGGAATT against Btbd12,inactive: -2.29
6,CCUUCCGUUUAGUUUUAUGTT against A230083H22Rik,inactive: 0.638
7,GGUCUCUUCAUGAUGGAUGTT against Akt1s1,inactive: 1.93
8,GGAUGCUAAUUCAAGUCUUTT against Slc1a7,inactive: -0.42
9,CCUUCUCUAUGAUCAGGCUTT against Doc2a,inactive: 0.38
10,GGUAGACAACAGGUUGUUGTT against Crhbp,inactive: 0.567
11,GCUUUUUGGAGGAAUUCACTT against LOC547347,inactive: 2.97
12,GGAGGUGACCUGUAAUCCCTT against Msmb,inactive: 0.268
13,GGUCUGUGAAAUGAAAAAUTT against 1110064N10Rik,inactive: -1.58
14,GGAUUUCAUUCCAAACAUGTT against Hbs1l,inactive: 1.14
15,GGUCACGGAACAAAAAACCTT against D230019K20Rik,inactive: -0.254
16,AACUAUACGUCCGCUCACUTT against 1700013L23Rik,inactive: -0.325
17,GGACGAGGUCCUGUCCUUUTT against Ccbp2,inactive: 0.571
18,GCUUGGUAAAAUGAAAGUCTT against Klhl12,inactive: 0.771
19,GCCAAAGUGUGUGUUGAAGTT against Gng11,inactive: 0.934
20,CCCUCUCUACGAUGACUCUTT against 9130213B05Rik,inactive: 0.232
21,GGAAGAACCACCUUCAUGCTT against Btn2,inactive: -2.22
22,GGCAUUGCUGACUACAAACTT against Tcn2,inactive: -0.219
23,GGCCUUGAUGGUACCAUGUTT against Uqcr,inactive: -2.11
24,GGAGCCAAGUGUGAUUACATT against Pias3,active: -1.38
25,CCGUCAACUUCUAGAUGGUTT against Trpm5,inactive: -0.761
26,GGGAUUGAGUUUGUCCUAUTT against Olfr453,inactive: 0.525

row,Sequence,z-score
1,GGGAAGGCAAUUUAAAAAATT against 4931428D14Rik,inactive: -0.902
2,GCGUAGGUCAUCCUUGUAATT against Samd4,inactive: 0.525
3,GCCAACAGAAAUAAGCCUUTT against Sorcs1,inactive: -0.456
4,GCGAAAUGCACCAGAUCAGTT against Gm295,inactive: 0.111
5,GAGAACCAGGCUAUGUCUGTT against Defcr-rs10,inactive: -0.0777
6,GGAGAGACCAGAAUGGUAUTT against E330009P21Rik,inactive: -0.543
7,GGAGACGAUGGAAUAUUUGTT against Snx3,inactive: 1.14
8,GGUUCCUGUAUCACAUGCGTT against BC016235,inactive: 0.394
9,GGUCGUAAGUUUCAUAAUUTT against Aqp3,inactive: -0.37
10,GGACAAGGGCACAUCCAGUTT against Gtf2h4,inactive: -3.19
11,GGACGAAAAGGAAUAUAUGTT against Cul1,inactive: -0.573
12,GGAAGUUUUAGUCCCUCUUTT against 4632415L05Rik,inactive: 0.0229
13,CGUCUCUAUAUACAUACAATT against 9930038B18Rik,inactive: -1.29
14,CGUAUUAACGACAUAAGAGTT against Nckap1,inactive: 0.301
15,GGACCUGUUCAUUUUUGUCTT against Pdgfrb,inactive: 0.436
16,GAUCUUUCGACACAUCACCTT against MGC25972,inactive: -0.415
17,GGACAAAACAUGGAAAAGCTT against 4930486L24Rik,inactive: -0.096
18,GGUUCUUGUGGAUCUUACCTT against Olfr1424,inactive: 0.133
19,GGCACUACUAUCAAGACAGTT against 4933436I01Rik,inactive: -0.409
20,GGUGAAUGCAGAGCUUUCATT against 2010301N04Rik,inactive: -0.961
21,GGGUAAUUUUUCACAACAGTT against 1110051M20Rik,inactive: 0.337
22,GGAAGCAGAUGACUGGGAATT against H2-T10,inactive: -0.0996
23,GCUGUAUCUUGUGAACAGCTT against Rad9b,inactive: 0.379
24,GGAUGUGAUCAUAGCAUGGTT against 6030458H05,inactive: -0.0195
25,GGAGUUUAUGAAAUUCAACTT against Fcgrt,inactive: -0.154
